# For at least one compound, name, drawing or mass did not settle the structure.
# System: unilateral 6-OHDA rats
# Test: rat unilateral 6-OHDA rotation model of Parkinson's disease
# Type: in vivo
# Conditions: SCH-23390 0.5 mg/kg s.c., 3 h
# Text: Summary. In the rat unilateral 6-hydroxydopamine (6-OHDA) rotation model of Parkinson's disease, 6-OHDA is infused unilaterally into the medial forebrain bundle, the substantia nigra, or the striatum. […] When challenged with direct-acting dopamine receptor agonists, unilateral 6-OHDA rats turn contralaterally (away from the side of the lesion) because of the increased sensitivity of the postsynaptic dopamine receptors on the lesioned side. The experiments described below examine tolerance induced by the full D1 agonist, dinapsoline, using the 6-OHDA model.
# Subjects. Adult male Sprague-Dawley Rats (Hilltop Laboratories, Chatsworth, Calif.), weighing between 280 and 320 grams, were used as subjects. Animals were housed individually with food and water available ad libitum, except as noted below. The light:dark schedule was 12 h:12 h, and testing was performed during the light cycle. […]
# Acute Dinapsoline Administration. Beginning 1 week after the screening dose with apomorphine, subjects (n=12) were tested once per week with dinapsoline (0.02, 0.2, or 2 mg/kg) or vehicle (s.c.) using a counterbalanced design, and rotation behavior was monitored for 10 h. […] Rats were fasted for 16 h before dosing with oral gavage, and rotation behavior was monitored for 10 h.
structure (smiles),measurement,setting,value
"CN1CCc2cc(Cl)c(O)cc2[C@@H](c2ccccc2)C1 [SCH-23390, reference compound]",effect of antagonist pretreatment on rotational response to dinapsoline,dinapsoline 0.2 mg/kg s.c.,blocked completely
same,effect of antagonist pretreatment on rotational response to dinapsoline,dinapsoline 2.0 mg/kg,blocked completely

# From patent US6916823B2, “Method of treatment of dopamine-related dysfunction” (Purdue Research Foundation, priority 2001, dated 2005)
